Results are given in words; binding and its absence hold for the method and conditions named.
Biological target: T1, human BROX(1-401) (human, UniProt Q5VW32 1-401)
T1 construct: BROX, human, residues 1-401; lacks the 10 C-terminal residues 402-411 with the farnesylated Cys408; Residues of the vector may remain after TEV cleavage (surmise); also called wild type BROX; recombinant human BROX; not shown: His6, N-terminal, cleaved
T1 sequence (looked up): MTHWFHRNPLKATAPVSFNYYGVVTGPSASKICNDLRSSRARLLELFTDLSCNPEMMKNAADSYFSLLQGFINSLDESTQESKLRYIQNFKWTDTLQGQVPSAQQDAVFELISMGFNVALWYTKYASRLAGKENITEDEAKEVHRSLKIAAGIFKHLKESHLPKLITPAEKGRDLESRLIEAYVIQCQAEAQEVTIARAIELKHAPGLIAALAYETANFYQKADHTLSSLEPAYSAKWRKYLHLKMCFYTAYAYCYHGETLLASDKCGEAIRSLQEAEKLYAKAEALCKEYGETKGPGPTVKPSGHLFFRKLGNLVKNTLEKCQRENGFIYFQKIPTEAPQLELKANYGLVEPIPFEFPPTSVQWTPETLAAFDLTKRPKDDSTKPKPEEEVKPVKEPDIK
Assay: SEC; gel filtration of purified BROX(1-401), Superdex 75, 10 mM Tris pH 8.0, 100 mM NaCl, 1 mM DTT; 47 kDa protein eluted as a single species of apparent 57 kDa; both purified

binding: no binding
B1: human BROX(1-401) (protein, UniProt Q5VW32 1-401)
chain: T1 sequence (looked up)
